The values that follow come from patent US12024543B2, “Micropeptides and use of same for modulating gene expression” (UNIVERSITE PAUL SABATIER TOULOUSE III, priority 2013, dated 2024).

This data set has as its system roots of M. truncatula. In words: Immunolocalization of miPEP171b in roots of M. truncatula. More on the design: species or system Medicago truncatula.

Take “MLLHRLSKFCKIERDIVYIS (listed as Medicago truncatula) [MtmiPEP171b1]”: the “immunolocalization with anti-miPEP171b antibody” value is, setting by setting: (listed as miPEP171b) “presence of miPEP171b in the lateral root initiation sites”; (listed as miPEP171b1) “presence of miPEP171b1 in the lateral root initiation sites”.
